± gives the standard deviation of the averaged measurements. The entries are a selection whose mix differs from that of the whole data set.

The chains behind the UniProt entries cited, without tags or fusion partners. Where a name states a change or a piece, a line headed by the entry shows the natural chain unless it says otherwise.
UniProt Q969K3: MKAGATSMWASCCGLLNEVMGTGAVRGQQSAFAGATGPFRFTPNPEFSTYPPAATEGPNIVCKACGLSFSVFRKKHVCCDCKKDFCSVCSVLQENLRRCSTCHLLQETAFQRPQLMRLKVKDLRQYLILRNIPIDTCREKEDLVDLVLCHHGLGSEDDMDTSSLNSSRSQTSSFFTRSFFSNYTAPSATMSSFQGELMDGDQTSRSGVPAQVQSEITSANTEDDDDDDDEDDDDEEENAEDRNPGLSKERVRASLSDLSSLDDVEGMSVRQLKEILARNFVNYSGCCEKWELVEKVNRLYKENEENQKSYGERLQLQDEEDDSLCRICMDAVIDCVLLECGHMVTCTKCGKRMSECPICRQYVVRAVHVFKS
UniProt Q9HAH7: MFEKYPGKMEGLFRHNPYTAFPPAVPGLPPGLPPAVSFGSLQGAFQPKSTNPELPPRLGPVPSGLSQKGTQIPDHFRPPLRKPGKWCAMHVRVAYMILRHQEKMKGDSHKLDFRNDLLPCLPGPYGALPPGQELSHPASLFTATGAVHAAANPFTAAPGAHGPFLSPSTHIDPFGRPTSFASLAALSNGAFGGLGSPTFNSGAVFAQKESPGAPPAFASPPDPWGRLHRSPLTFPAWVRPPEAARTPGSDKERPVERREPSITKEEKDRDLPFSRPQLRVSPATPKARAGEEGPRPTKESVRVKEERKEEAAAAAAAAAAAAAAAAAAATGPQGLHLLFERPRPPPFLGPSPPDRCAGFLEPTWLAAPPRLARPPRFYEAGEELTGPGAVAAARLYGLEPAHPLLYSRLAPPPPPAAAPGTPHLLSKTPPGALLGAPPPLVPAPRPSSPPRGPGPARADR
UniProt Q8TF40: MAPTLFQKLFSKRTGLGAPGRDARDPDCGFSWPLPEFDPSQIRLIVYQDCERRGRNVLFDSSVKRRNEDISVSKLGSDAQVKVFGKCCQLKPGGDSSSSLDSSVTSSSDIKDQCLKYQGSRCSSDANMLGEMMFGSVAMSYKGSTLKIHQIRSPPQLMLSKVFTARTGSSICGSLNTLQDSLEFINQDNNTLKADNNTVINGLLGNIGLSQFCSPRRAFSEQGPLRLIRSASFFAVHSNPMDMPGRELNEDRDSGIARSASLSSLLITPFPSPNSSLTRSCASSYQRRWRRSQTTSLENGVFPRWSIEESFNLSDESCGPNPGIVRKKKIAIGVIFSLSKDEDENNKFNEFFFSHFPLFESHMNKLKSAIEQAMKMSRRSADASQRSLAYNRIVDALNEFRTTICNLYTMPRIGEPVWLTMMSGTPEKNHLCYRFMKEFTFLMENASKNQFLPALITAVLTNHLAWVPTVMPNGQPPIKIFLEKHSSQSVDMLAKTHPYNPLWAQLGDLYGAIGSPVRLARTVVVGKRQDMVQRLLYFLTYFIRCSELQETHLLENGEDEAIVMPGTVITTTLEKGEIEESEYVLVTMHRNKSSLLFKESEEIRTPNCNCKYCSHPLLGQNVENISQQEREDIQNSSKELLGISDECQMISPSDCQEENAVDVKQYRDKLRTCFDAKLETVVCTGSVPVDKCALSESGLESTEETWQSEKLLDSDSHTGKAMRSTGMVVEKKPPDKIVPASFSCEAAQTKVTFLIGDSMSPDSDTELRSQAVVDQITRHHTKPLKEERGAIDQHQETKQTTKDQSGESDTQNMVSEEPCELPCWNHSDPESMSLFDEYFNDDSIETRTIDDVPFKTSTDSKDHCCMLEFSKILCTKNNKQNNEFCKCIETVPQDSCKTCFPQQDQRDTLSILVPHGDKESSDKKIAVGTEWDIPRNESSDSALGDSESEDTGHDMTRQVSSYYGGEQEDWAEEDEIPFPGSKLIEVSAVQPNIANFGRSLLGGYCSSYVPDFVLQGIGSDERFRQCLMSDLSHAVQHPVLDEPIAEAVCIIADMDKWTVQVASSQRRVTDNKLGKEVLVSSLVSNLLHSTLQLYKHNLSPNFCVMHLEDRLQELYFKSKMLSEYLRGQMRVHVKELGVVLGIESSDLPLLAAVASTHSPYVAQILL
UniProt Q9P107: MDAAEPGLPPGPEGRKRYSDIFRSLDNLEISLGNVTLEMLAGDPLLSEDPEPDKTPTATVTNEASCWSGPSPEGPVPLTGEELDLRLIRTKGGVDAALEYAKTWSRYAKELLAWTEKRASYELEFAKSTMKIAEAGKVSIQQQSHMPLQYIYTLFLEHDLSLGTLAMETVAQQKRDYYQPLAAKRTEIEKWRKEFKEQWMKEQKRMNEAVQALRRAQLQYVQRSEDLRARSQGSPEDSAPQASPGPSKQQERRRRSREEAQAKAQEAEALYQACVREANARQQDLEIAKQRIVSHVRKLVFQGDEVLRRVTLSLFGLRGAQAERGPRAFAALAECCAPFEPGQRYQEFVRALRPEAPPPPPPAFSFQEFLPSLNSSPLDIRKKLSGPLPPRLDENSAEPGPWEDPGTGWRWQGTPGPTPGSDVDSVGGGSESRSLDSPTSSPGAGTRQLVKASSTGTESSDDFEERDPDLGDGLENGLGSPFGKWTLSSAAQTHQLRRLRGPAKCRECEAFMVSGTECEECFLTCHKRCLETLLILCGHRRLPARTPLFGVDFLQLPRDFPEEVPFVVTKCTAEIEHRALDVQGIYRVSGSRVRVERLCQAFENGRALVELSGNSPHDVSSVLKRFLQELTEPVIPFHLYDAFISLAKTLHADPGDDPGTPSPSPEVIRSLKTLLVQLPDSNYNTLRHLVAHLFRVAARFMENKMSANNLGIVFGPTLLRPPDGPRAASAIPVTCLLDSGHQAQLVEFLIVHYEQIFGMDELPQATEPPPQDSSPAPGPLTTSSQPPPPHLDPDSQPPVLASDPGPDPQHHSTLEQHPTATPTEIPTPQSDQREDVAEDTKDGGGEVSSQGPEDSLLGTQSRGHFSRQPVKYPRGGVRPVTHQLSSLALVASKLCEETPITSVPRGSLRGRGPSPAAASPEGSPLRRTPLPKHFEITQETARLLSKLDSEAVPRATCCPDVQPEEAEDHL
UniProt Q9NP61: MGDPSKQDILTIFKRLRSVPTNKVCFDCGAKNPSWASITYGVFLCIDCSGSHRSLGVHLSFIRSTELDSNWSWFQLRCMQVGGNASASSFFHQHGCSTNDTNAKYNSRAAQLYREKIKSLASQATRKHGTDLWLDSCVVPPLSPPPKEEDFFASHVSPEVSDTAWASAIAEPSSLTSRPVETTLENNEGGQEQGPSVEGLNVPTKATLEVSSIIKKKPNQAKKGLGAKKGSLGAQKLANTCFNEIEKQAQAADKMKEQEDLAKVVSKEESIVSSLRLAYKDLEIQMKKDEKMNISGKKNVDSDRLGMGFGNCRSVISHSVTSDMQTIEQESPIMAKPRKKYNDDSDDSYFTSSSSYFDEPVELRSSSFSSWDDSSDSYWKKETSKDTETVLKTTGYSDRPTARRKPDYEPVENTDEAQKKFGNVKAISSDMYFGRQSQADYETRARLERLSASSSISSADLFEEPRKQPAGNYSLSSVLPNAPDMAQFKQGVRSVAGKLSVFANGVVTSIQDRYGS
UniProt Q7RTR2: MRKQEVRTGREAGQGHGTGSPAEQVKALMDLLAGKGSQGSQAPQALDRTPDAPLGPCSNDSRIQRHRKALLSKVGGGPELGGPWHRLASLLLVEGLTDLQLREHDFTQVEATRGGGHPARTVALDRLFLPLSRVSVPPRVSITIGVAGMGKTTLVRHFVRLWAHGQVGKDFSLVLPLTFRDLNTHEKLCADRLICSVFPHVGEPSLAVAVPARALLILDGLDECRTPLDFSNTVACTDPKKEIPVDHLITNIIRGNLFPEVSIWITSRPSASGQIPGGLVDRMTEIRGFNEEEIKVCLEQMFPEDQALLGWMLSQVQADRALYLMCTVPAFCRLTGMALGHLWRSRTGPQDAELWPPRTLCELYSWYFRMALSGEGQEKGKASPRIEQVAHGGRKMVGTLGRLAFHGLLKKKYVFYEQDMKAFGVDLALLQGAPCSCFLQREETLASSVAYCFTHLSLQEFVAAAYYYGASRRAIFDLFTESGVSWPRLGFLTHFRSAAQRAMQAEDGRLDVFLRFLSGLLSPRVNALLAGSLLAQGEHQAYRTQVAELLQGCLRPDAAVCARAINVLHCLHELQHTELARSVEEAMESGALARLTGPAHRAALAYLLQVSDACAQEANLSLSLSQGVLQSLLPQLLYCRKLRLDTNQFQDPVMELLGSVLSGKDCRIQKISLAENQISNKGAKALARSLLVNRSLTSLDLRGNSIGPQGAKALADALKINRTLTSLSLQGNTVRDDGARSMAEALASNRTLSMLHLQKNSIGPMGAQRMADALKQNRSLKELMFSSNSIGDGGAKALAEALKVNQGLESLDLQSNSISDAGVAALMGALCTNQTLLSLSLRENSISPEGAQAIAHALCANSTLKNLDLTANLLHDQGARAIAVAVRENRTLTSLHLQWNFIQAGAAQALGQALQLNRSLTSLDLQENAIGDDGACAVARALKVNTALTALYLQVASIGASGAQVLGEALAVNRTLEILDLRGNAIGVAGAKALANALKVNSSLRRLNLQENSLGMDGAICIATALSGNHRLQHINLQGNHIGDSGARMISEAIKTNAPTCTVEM
UniProt Q96S82: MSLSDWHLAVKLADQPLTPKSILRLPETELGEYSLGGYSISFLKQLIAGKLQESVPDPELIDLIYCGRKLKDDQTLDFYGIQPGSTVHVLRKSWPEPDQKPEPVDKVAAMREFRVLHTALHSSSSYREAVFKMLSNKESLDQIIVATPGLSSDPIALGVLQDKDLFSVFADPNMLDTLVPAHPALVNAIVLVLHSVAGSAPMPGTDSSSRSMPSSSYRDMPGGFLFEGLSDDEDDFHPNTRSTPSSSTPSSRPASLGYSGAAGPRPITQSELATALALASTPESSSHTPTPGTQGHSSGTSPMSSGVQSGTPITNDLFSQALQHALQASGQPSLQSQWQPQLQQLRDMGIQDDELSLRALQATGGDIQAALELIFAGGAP
UniProt P34949: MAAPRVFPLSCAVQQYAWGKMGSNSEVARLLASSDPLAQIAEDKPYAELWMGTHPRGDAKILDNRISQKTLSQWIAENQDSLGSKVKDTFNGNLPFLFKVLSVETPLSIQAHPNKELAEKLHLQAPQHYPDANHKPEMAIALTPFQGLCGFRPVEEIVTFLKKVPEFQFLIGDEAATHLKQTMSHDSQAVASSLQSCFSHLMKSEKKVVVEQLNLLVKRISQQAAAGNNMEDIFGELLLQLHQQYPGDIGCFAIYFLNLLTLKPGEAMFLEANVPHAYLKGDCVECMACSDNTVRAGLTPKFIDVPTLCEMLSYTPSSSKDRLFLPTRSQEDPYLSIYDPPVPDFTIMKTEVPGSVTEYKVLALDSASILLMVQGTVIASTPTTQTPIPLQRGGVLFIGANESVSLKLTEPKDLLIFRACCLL
UniProt Q9UM11, whole entry: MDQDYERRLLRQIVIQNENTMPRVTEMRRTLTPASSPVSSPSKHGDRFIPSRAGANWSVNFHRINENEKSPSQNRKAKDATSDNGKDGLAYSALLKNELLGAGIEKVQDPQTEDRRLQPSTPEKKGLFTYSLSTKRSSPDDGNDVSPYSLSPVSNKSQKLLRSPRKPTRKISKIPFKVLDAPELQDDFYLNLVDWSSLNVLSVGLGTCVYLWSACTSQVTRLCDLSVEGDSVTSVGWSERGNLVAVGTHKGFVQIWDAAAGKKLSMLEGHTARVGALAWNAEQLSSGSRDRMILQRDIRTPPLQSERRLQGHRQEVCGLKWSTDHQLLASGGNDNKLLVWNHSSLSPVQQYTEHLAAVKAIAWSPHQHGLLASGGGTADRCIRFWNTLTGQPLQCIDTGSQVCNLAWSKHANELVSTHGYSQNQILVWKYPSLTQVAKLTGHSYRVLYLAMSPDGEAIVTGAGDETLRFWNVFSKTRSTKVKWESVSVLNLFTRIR
UniProt Q96K21: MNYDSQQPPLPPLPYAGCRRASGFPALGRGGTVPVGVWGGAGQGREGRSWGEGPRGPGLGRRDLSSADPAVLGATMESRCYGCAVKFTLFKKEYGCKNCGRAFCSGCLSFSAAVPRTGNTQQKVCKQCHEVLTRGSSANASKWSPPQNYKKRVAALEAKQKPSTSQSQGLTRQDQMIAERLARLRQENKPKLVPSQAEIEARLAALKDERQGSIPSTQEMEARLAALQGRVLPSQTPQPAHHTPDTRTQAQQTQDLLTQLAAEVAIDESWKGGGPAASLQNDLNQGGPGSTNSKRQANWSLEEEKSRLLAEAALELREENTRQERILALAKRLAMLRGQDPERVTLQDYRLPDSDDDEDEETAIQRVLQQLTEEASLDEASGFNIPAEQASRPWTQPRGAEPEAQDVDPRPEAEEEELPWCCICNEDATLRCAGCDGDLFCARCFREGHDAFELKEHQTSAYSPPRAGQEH

Compound in this assay: Nc1ncnc2c1ncn2[C@@H]1O[C@H](COP(=O)(O)OP(=O)(O)OP(=O)(O)O)[C@@H](O)[C@H]1O [adenosine triphosphate]
In words: NP40-soluble protein abundance relative to vehicle (solubility fold change) (ratio); higher = more soluble protein in presence of ATP. In short, it runs like this: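 Data come from three independent experiments in which Dounce-homogenised Jurkat crude lysate was treated at eight concentrations from 0.1 to 10 mM. Treatment ran 10 min at room temperature and then 3 min at 37 °C, after which 0.8% NP40 and benzonase were added for 60 min at 4 °C before ultracentrifugation. The supernatant underwent TMT labelling and LC-MS/MS, and vsn-normalised intensities were expressed as fold change against the detergent-processed vehicle in each replicate.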

In the case of “K7EL60 and related entries (UniProt O75821)”, the NP40-soluble protein abundance (concentration: 1mM) worked out at 0.977 ± 0.046; the NP40-soluble protein abundance (concentration: 2mM) was determined as 1.01 ± 0.054; the NP40-soluble protein abundance (concentration: 4mM) was found to be 1.06 ± 0.061; the NP40-soluble protein abundance (concentration: 6mM) came out at 1.19 ± 0.078; the NP40-soluble protein abundance (concentration: 8mM) was 1.26 ± 0.049; the NP40-soluble protein abundance (concentration: 10mM) amounted to 1.39 ± 0.066.
In the case of “H7BYJ1 and related entries (UniProt Q969K3)”, the NP40-soluble protein abundance was 0.952 ± 0.023 (concentration: 1mM); 0.922 ± 0.047 (concentration: 2mM); 0.948 ± 0.067 (concentration: 4mM); 0.928 ± 0.037 (concentration: 6mM); 0.919 ± 0.044 (concentration: 8mM); 0.915 ± 0.075 (concentration: 10mM).
Consider J3KNZ9 (UniProt Q9HAH7), for which the NP40-soluble protein abundance is 1.09 ± 0.06 (concentration: 1mM); 1.08 ± 0.11 (concentration: 2mM); 1.1 ± 0.17 (concentration: 4mM); 1.12 ± 0.12 (concentration: 6mM); 1.02 ± 0.054 (concentration: 8mM); 1.07 ± 0.16 (concentration: 10mM).
Consider “H7BZJ3 and related entries (UniProt P30101)”, for which the NP40-soluble protein abundance (concentration: 1mM) turned out to be 0.869 ± 0.14; the NP40-soluble protein abundance (concentration: 2mM) was 0.995 ± 0.054; the NP40-soluble protein abundance (concentration: 4mM) worked out at 0.855 ± 0.11; the NP40-soluble protein abundance (concentration: 6mM) was determined as 0.96 ± 0.11; the NP40-soluble protein abundance (concentration: 8mM) was 0.963 ± 0.11; the NP40-soluble protein abundance (concentration: 10mM) is 0.861 ± 0.086.
With “J3KNG8 and related entries (UniProt Q8TF40)”, the NP40-soluble protein abundance reads like this: (concentration: 1mM) 1.02 ± 0.12; (concentration: 2mM) 1.02 ± 0.057; (concentration: 4mM) 1.05 ± 0.13; (concentration: 6mM) 1.02 ± 0.018; (concentration: 8mM) 0.958 ± 0.078; (concentration: 10mM) 0.983 ± 0.053.
Regarding “K7EJC2 and related entries (UniProt Q9P107)”, the NP40-soluble protein abundance runs as follows: (concentration: 1mM) 1.02 ± 0.058; (concentration: 2mM) 1.01 ± 0.025; (concentration: 4mM) 1.08 ± 0.068; (concentration: 6mM) 1.04 ± 0.063; (concentration: 8mM) 0.993 ± 0.066; (concentration: 10mM) 1.01 ± 0.045.
On to “H0Y6A0 and related entries (UniProt Q9NP61)”, for which the NP40-soluble protein abundance is, setting by setting: (concentration: 1mM) 0.941 ± 0.025; (concentration: 2mM) 0.9427 ± 0.0025; (concentration: 4mM) 0.931 ± 0.016; (concentration: 6mM) 0.965 ± 0.02; (concentration: 8mM) 0.908 ± 0.028; (concentration: 10mM) 0.922 ± 0.02.
“H3BUF6 and related entries (UniProt Q8WWM7)”: the NP40-soluble protein abundance runs as follows: (concentration: 1mM) 0.952 ± 0.059; (concentration: 2mM) 0.97 ± 0.029; (concentration: 4mM) 0.958 ± 0.045; (concentration: 6mM) 1.04 ± 0.043; (concentration: 8mM) 0.983 ± 0.023; (concentration: 10mM) 0.9815 ± 0.0037.
With “H3BLT9 and related entries (UniProt Q7RTR2)”, the NP40-soluble protein abundance amounted to 1.11 ± 0.035 (concentration: 1mM); 1.1 ± 0.063 (concentration: 2mM); 1.09 ± 0.031 (concentration: 4mM); 1.06 ± 0.1 (concentration: 6mM); 1.07 ± 0.023 (concentration: 8mM); 1.14 ± 0.087 (concentration: 10mM).
Regarding “H3BRL0 and related entries (UniProt Q9BXC9)”, the NP40-soluble protein abundance by setting is: (concentration: 1mM) 0.997 ± 0.094; (concentration: 2mM) 0.952 ± 0.056; (concentration: 4mM) 1.06 ± 0.044; (concentration: 6mM) 1.01 ± 0.016; (concentration: 8mM) 1.02 ± 0.03; (concentration: 10mM) 0.974 ± 0.029.
For “H3BV23 and related entries (UniProt Q96S82)”, the NP40-soluble protein abundance was found to be 0.925 ± 0.065 (concentration: 1mM); 0.927 ± 0.068 (concentration: 2mM); 0.92 ± 0.077 (concentration: 4mM); 0.93 ± 0.092 (concentration: 6mM); 0.889 ± 0.015 (concentration: 8mM); 0.843 ± 0.087 (concentration: 10mM).
As to “H3BPB8 and related entries (UniProt P34949)”, the NP40-soluble protein abundance runs as follows: (concentration: 1mM) 1.02 ± 0.026; (concentration: 2mM) 1.07 ± 0.091; (concentration: 4mM) 1.01 ± 0.032; (concentration: 6mM) 1.03 ± 0.053; (concentration: 8mM) 0.992 ± 0.017; (concentration: 10mM) 0.997 ± 0.03.
Consider “K7EQT1 and related entries (UniProt Q9UM11)”, for which the NP40-soluble protein abundance by setting is: (concentration: 1mM) 1.05 ± 0.076; (concentration: 2mM) 1.04 ± 0.058; (concentration: 4mM) 1.06 ± 0.12; (concentration: 6mM) 1.02 ± 0.12; (concentration: 8mM) 1.07 ± 0.11; (concentration: 10mM) 1.12 ± 0.15.
In the case of “H3BRF9 and related entries (UniProt Q96K21)”, the NP40-soluble protein abundance (concentration: 1mM) amounted to 0.904 ± 0.035; the NP40-soluble protein abundance (concentration: 2mM) stood at 0.939 ± 0.019; the NP40-soluble protein abundance (concentration: 4mM) came out at 0.944 ± 0.037; the NP40-soluble protein abundance (concentration: 6mM) is 0.913 ± 0.037; the NP40-soluble protein abundance (concentration: 8mM) was 0.888 ± 0.028; the NP40-soluble protein abundance (concentration: 10mM) turned out to be 0.909 ± 0.032.
Turning to “H7C3T2 and related entries (UniProt Q2TAZ0)”, the NP40-soluble protein abundance runs as follows: (concentration: 1mM) 0.9778 ± 0.0038; (concentration: 2mM) 0.943 ± 0.058; (concentration: 4mM) 0.969 ± 0.027; (concentration: 6mM) 0.976 ± 0.039; (concentration: 8mM) 0.949 ± 0.051; (concentration: 10mM) 0.917 ± 0.022.

For the origin of these results see the supplement of paper PMC6411743.
